Test results as given in the supplement of paper PMC11098740.
The other results are listed elsewhere or left out. Many values rest on one well or one pass, so single values are uncertain.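 Pooled together, 41 HAP1 clones carry intronic fluorescent tags on 61 cancer-associated proteins, and each clone is recognized by its imaging pattern. Measurements are benchmarked against DMSO-treated control wells. dBET6, a BRD4 degrader, served as the positive control.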

Protein sequences, listed by entry. Tags and fused reporters are not part of them.
UniProt O14980, whole entry: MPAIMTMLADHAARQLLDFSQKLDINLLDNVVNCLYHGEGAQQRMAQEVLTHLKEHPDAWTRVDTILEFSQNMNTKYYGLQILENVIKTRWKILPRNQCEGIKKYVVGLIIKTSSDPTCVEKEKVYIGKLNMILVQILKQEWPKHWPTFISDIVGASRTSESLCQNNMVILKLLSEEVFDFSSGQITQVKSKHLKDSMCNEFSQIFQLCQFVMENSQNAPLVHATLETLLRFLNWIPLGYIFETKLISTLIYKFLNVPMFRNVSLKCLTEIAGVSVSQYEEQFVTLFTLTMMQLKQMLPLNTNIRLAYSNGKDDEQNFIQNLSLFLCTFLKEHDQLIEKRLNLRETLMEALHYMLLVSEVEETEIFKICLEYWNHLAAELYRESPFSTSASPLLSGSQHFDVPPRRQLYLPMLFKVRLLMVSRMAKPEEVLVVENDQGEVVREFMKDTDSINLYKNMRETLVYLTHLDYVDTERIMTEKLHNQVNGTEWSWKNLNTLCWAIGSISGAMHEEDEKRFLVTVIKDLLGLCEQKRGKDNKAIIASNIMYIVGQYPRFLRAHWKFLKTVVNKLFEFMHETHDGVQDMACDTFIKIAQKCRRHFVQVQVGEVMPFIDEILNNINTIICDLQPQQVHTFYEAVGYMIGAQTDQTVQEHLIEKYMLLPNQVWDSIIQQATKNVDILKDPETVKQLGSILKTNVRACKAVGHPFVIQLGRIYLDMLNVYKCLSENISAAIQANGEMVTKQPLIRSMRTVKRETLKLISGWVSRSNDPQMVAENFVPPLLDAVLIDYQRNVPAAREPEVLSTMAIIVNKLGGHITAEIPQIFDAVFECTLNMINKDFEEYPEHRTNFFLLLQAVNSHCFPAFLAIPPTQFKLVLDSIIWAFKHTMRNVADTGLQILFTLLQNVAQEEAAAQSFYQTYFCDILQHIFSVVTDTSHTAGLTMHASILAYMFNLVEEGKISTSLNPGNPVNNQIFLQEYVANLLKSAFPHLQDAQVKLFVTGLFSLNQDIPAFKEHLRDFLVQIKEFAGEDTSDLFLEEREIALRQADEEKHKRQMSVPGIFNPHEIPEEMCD

These molecules were tested against XPO1 (intron 15 mScarlet tag, HAP1) (UniProt O14980) (assay: XPO1 fluorescence intensity change vs DMSO (log2 fold change); higher = more XPO1 protein). Conditions: 6 h.

Going from `CC1OC2(CS1)CN1CCC2CC1` (stereo not drawn) [Cevimeline] (11.8284 µM) to `O=C(O)C(=O)O.[NH-][C@@H]1CCCC[C@H]1[NH-].[Pt+2]` [Oxaliplatin] (20 µM), the “XPO1 fluorescence intensity change (log2)” value rises from -0.141 to 0.205.

`CNC(=O)c1ccccc1Sc1ccc2c(/C=C/c3ccccn3)n[nH]c2c1` [Axitinib] (20 µM) and `Cc1cc(Nc2ncc(Cl)c(Nc3ccccc3S(=O)(=O)C(C)C)n2)c(OC(C)C)cc1C1CCNCC1` [Ceritinib] (10 µM) are within 0.2 log units of each other in “XPO1 fluorescence intensity change (log2)” value: -0.117 for the first, 0.0804 for the second.

Compared with `CS(=O)(=O)OCCCCOS(C)(=O)=O` [Busulfan] (20 µM), `CCCCCCCCCCC[C@@H](C[C@@H]1OC(=O)[C@H]1CCCCCC)OC(=O)[C@H](CC(C)C)NC=O` [Orlistat] (10 µM) is higher in “XPO1 fluorescence intensity change (log2)” value: -0.288 for the first, 0.0299 for the second.

`CC[C@@H](CO)NCCN[C@@H](CC)CO` [Ethambutol] (10 µM) and `CN(C)[C@@H]1C(O)=C(C(N)=O)C(=O)[C@@]2(O)C(O)=C3C(=O)c4c(O)cccc4[C@@](C)(O)[C@H]3C[C@@H]12` [Tetracycline] (10 µM) are within 0.2 log units of each other in “XPO1 fluorescence intensity change (log2)” value: 0.24 for the first, 0.13 for the second.
